No constants are given. Whether binding was seen depends on the method and setting. In cells and extracts the contact can be indirect. A result given as binding can be weak or reduced; the word gives no strength.
Target: wild-type Pp2a-c (stably transfected in HEK293T) (UniProt P67775)
Experiment: co-IP

The chains behind the UniProt entries cited, without tags or fusion partners. Where a name states a change or a piece, a line headed by the entry shows the natural chain unless it says otherwise.
UniProt P67775: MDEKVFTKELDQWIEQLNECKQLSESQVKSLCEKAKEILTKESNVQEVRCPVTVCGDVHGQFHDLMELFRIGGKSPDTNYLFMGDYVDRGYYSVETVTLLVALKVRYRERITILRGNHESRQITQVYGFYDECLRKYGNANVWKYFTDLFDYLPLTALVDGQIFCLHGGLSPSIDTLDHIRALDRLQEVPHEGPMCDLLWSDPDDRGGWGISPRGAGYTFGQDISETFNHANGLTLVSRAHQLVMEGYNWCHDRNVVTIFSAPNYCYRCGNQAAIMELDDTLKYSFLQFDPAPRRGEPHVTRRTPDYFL
UniProt Q01105: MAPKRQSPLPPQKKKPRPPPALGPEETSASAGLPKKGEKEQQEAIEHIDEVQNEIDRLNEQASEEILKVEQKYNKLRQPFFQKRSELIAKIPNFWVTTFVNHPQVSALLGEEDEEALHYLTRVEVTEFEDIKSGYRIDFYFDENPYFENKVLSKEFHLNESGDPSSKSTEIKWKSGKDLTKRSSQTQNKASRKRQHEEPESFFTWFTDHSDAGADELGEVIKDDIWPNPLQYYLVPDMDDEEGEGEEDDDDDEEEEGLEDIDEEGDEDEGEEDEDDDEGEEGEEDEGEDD

binding: binds
Substance: SET, endogenous in HEK293T cells (from UniProt Q01105 1-290)

From publication doi:10.1101/2023.01.15.524091
